Assay results taken from patent JP2001333780A.
These are yes or no findings as the source states them, for the method shown. Some entries that bind do so weakly or less than the wild type.

Target: 上皮細胞増殖因子レセプター(EGFR) (UniProt P00533)
Test: competition ELISA with HRP-labelled B4G7 on formalin-fixed A431 cells

B1: マウス改変型(BB型) 一本鎖抗体 (scFv)
scFv: MGHHHHHHQVQLQQSGAELVRPGASVKLSCTASGFNIKDTLMHWVKQRPEQGLEWIGWIDPEDGNTKYVRKFQGKATITADTSSNTAYLQVSSLTSEDTAIYYCVRGGSYGNWAYWGQGTTVTVSSGGGGSGGGGSGGGGSDIELTQSPASLSASVGETVTITCRTSENIYSYFAWYQQKQGKSPHLLVYNAKTLAEGVPSRFSGSGSGTQFSLKINSLQPEDFGIYFCQHHYGSLHTFGGGTKLEIKHHHHHHGGGS
binding: binds
